# Data from patent publication US20060088522A1, “Humanized anti-5T4 antibodies and anti-5T4/calicheamicin conjugates” (Wyeth, priority 2004, published 2006).
# Results are given in words; binding and its absence hold for the method and conditions named. Some binding calls cover weakened binding; strength is not graded here.
# T1: human 5T4 antigen (human, UniProt Q13641 32-355, limits assumed)
# T1 construct: Isolated antigen as used in BIACORE and ELISA; also called 5T4 oncofetal antigen
# T1 sequence (looked up): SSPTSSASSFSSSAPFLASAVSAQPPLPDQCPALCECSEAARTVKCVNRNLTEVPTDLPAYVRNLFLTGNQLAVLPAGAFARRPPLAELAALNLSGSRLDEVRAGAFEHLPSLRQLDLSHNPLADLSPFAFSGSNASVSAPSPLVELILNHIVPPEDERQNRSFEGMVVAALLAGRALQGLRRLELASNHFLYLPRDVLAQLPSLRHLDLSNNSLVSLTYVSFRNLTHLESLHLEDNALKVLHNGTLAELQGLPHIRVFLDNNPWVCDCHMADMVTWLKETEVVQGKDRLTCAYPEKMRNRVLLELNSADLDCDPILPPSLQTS
# Tests used:
# human 5T4 antigen [1] = target: T1, human 5T4 antigen; assay: Western blot of diluted CT26/5T4 cell extracts; called the H8-reactive band in paragraph 24 and paragraph 239
# human 5T4 antigen [2] = target: T1, human 5T4 antigen; assay: densitometry of the H8-reactive band of the Western blot of FIG. 3A, with linear regression
# human 5T4 antigen [3] = target: T1, human 5T4 antigen; assay: Western blot of lysates of cultured cells and of allografted tumors; the detecting antibody is not printed on the sheet, murine H8 by paragraph 236
# human 5T4 antigen [4] = target: T1, human 5T4 antigen; assay: Western blot of avidin-bound (A) and supernatant (S) protein from cells with (+B) or without (-B) biotin; the detecting antibody is not printed on the sheet, murine H8 by paragraph 236
# human 5T4 antigen [5] = target: T1, human 5T4 antigen; assay: Western blot of avidin-bound (A) and supernatant (S) fractions after biotin treatment of the cells; the detecting antibody is not printed on the sheet, murine H8 by paragraph 236
# human 5T4 antigen [6] = target: T1, human 5T4 antigen; assay: BIACORE, human 5T4 antigen immobilized on a CM5 chip
# human 5T4 antigen [7] = target: T1, human 5T4 antigen; assay: plasmon resonance
binder,measurement,setting,value
"murine H8 anti-5T4 antibody (antibody, V domains shown, also called mAb5T4; H8 antibody) VH: EVQLQQSGPDLVKPGASVKISCKASGYSFTGYYMHWVKQSHGKSLEWIGRINPNNGVTLYNQKFKDKAILTVDKSSTTAYMELRSLTSEDSAVYYCARSTMITNYVMDYWGQVTSVTVSS VL: SIVMTQTPTFLLVSAGDRVTITCKASQSVSNDVAWYQQKPGQSPTLLISYTSSRYAGVPDRFIGSGYGTDFTFTISTLQAEDLAVYFCQQDYNSPPTFGGGTKLEIK",binding,human 5T4 antigen [1],binds
same,binding,human 5T4 antigen [2],binds
same,binding,human 5T4 antigen [3],binds
same,binding,human 5T4 antigen [4],binds
same,binding,human 5T4 antigen [5],binds
"Chimeric H8 (mVH/mVL) (antibody, V domains shown, also called chimeric H8 antibody; chimeric versions of H8) VH: EVQLQQSGPDLVKPGASVKISCKASGYSFTGYYMHWVKQSHGKSLEWIGRINPNNGVTLYNQKFKDKAILTVDKSSTTAYMELRSLTSEDSAVYYCARSTMITNYVMDYWGQVTSVTVSS VL: SIVMTQTPTFLLVSAGDRVTITCKASQSVSNDVAWYQQKPGQSPTLLISYTSSRYAGVPDRFIGSGYGTDFTFTISTLQAEDLAVYFCQQDYNSPPTFGGGTKLEIK",binding,human 5T4 antigen [6],binds
"Murine H8/CM (antibody, V domains shown, also called murine H8-calicheamicin conjugates) VH: EVQLQQSGPDLVKPGASVKISCKASGYSFTGYYMHWVKQSHGKSLEWIGRINPNNGVTLYNQKFKDKAILTVDKSSTTAYMELRSLTSEDSAVYYCARSTMITNYVMDYWGQVTSVTVSS VL: SIVMTQTPTFLLVSAGDRVTITCKASQSVSNDVAWYQQKPGQSPTLLISYTSSRYAGVPDRFIGSGYGTDFTFTISTLQAEDLAVYFCQQDYNSPPTFGGGTKLEIK",binding,human 5T4 antigen [7],binds
